Results deposited as PubChem BioAssay AID1224831 (NIAID, 2016)
Here is a random part of about 3,500 reagents tested. 731 of all reagents (21%) count as active. 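Active means either lowered or raised reporter signal; the gene-median score did not drive the per-siRNA calls.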 The numbers tell different reagents against one gene apart.

- Assay: 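Confirming genome-wide hits on LPS-triggered TNF-alpha induction with independent siRNA sequences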 (follow-up of hits)
- Cell system: human THP-1 B5 monocytic leukaemia cells carrying a TNF promoter luciferase reporter, made macrophage-like with PMA
- Reagents: single siRNA against human genes, 50 nM
- Timing: about 68 h of knock-down, then 4 h LPS
- Treatment: LPS (Salmonella minnesota, TLR-grade) at 10 ng/ml for 4 h; PMA 5 ng/ml present during knock-down
- Measurement: 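Firefly to renilla luciferase ratio of a TNF promoter reporter after 4 h LPS, scaled to plate median, turned into robust z-score, averaged over replicates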
- Reading the numbers: TNF reporter z-score: higher = stronger LPS-induced TNF reporter signal; z-score, median over gene's siRNAs: higher = stronger TNF reporter signal across the gene's siRNAs
- Rule for the call: 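Active when the replicate mean z-score is about -1 or lower, or about 1.5 or higher; lowered and raised TNF reporter signal both count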
- Meaning of the calls: active = changed TNF reporter (either direction); inactive = little change

| gene | siRNA no. | TNF reporter z-score, replicate mean | z-score, median over gene's siRNAs | call |
| --- | --- | --- | --- | --- |
| FAM241A | 1 | 0.16 | 0.05 | inactive |
| FAM241A | 2 | -0.68 | 0.05 | inactive |
| FAM241A | 3 | 0.2 | 0.05 | inactive |
| FAM241A | 4 | 0.32 | 0.05 | inactive |
| FAM241A | 5 | -0.06 | 0.05 | inactive |
| FAM241A | 6 | -0.38 | 0.05 | inactive |
| ATM | 1 | -0.28 | 0.09 | inactive |
| ATM | 2 | 2.36 | 0.09 | active |
| ATM | 3 | -0.8 | 0.09 | inactive |
| ATM | 4 | -0.3 | 0.09 | inactive |
| ATM | 5 | 1.49 | 0.09 | inactive |
| ATM | 6 | 0.46 | 0.09 | inactive |
| TNFRSF10B | 1 | 1.11 | 0.665 | inactive |
| TNFRSF10B | 2 | 0.37 | 0.665 | inactive |
| TNFRSF10B | 3 | 0.96 | 0.665 | inactive |
| TNFRSF10B | 4 | -0.76 | 0.665 | inactive |
| TNFRSF10B | 5 | -0.25 | 0.665 | inactive |
| TNFRSF10B | 6 | 2.43 | 0.665 | active |
| MARK1 | 1 | 0.82 | -0.285 | inactive |
| MARK1 | 2 | -0.27 | -0.285 | inactive |
| MARK1 | 3 | -1.96 | -0.285 | active |
| MARK1 | 4 | -0.3 | -0.285 | inactive |
| MARK1 | 5 | -0.69 | -0.285 | inactive |
| MARK1 | 6 | -0.11 | -0.285 | inactive |
| LRRC4 | 1 | 0.53 | -0.46 | inactive |
| LRRC4 | 2 | -1.6 | -0.46 | active |
| LRRC4 | 3 | -0.78 | -0.46 | inactive |
| LRRC4 | 4 | 0.91 | -0.46 | inactive |
| LRRC4 | 5 | -0.14 | -0.46 | inactive |
| LRRC4 | 6 | -1.09 | -0.46 | active |
| MAP3K15 | 1 | 0.18 | 0.15 | inactive |
| MAP3K15 | 2 | 0.1 | 0.15 | inactive |
| MAP3K15 | 3 | 0.71 | 0.15 | inactive |
| MAP3K15 | 4 | 0.12 | 0.15 | inactive |
| MAP3K15 | 5 | 1.07 | 0.15 | inactive |
| MAP3K15 | 6 | -0.4 | 0.15 | inactive |

Entries above called active, once more:
| gene | siRNA no. | TNF reporter z-score, replicate mean | z-score, median over gene's siRNAs | call |
| --- | --- | --- | --- | --- |
| ATM | 2 | 2.36 | 0.09 | active |
| TNFRSF10B | 6 | 2.43 | 0.665 | active |
| MARK1 | 3 | -1.96 | -0.285 | active |
| LRRC4 | 2 | -1.6 | -0.46 | active |
| LRRC4 | 6 | -1.09 | -0.46 | active |

The list goes on.
| gene | siRNA no. | TNF reporter z-score, replicate mean | z-score, median over gene's siRNAs | call |
| --- | --- | --- | --- | --- |
| SIRPD | 1 | 0.28 | 0.395 | inactive |
| SIRPD | 2 | 0.47 | 0.395 | inactive |
| SIRPD | 3 | 0.66 | 0.395 | inactive |
| SIRPD | 4 | 1.75 | 0.395 | active |
| SIRPD | 5 | 0.32 | 0.395 | inactive |
| SIRPD | 6 | 0.09 | 0.395 | inactive |
| PCDHA4 | 1 | 0.72 | 0.145 | inactive |
| PCDHA4 | 2 | 0.48 | 0.145 | inactive |
| PCDHA4 | 3 | -0.43 | 0.145 | inactive |
| PCDHA4 | 4 | 0.33 | 0.145 | inactive |
| PCDHA4 | 5 | -0.04 | 0.145 | inactive |
| PCDHA4 | 6 | -1.52 | 0.145 | active |
| TRIM51G | 1 | 0.38 | 0.53 | inactive |
| TRIM51G | 2 | 2.43 | 0.53 | active |
| TRIM51G | 3 | -0.3 | 0.53 | inactive |
| TRIM51G | 4 | -0.22 | 0.53 | inactive |
| TRIM51G | 5 | 0.68 | 0.53 | inactive |
| TRIM51G | 6 | 1.83 | 0.53 | active |
| PKIB | 1 | -1.16 | -0.415 | active |
| PKIB | 2 | -0.53 | -0.415 | inactive |
| PKIB | 3 | 0.76 | -0.415 | inactive |
| PKIB | 4 | -0.3 | -0.415 | inactive |
| PKIB | 5 | -0.05 | -0.415 | inactive |
| PKIB | 6 | -1.99 | -0.415 | active |
